In PMC8396604:
These are yes or no findings as the source states them, for the method shown. Binding seen in cells or lysates may run through a third protein. A yes stands for co-enrichment or nearness to the bait. Other partners may have been found.

The chains behind the UniProt entries cited, without tags or fusion partners.
UniProt P80206: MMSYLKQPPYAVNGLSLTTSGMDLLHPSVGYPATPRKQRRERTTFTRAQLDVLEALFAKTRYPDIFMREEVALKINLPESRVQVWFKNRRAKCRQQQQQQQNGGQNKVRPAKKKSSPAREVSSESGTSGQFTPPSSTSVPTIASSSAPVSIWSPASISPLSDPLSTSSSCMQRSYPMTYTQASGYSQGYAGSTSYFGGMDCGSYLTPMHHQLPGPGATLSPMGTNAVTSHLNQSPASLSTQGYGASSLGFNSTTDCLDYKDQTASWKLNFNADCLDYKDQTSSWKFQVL
UniProt Q9Z0V1: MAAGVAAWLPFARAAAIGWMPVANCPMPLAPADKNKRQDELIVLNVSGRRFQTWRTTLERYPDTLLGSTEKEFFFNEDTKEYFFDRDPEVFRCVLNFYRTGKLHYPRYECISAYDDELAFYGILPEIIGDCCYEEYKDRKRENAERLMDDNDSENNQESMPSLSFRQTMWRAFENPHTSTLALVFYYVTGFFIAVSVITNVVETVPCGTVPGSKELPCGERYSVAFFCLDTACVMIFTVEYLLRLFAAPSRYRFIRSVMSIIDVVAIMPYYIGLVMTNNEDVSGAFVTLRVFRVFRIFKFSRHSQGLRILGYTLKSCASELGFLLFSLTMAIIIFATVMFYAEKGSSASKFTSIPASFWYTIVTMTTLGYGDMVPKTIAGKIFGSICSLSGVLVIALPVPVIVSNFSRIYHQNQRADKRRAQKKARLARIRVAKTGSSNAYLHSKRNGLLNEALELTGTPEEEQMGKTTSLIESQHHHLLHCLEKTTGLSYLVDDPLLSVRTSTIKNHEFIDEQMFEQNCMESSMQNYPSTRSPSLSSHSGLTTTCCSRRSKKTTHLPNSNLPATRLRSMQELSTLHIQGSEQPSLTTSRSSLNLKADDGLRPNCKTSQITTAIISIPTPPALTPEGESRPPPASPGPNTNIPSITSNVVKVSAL
UniProt Q9Z1T6: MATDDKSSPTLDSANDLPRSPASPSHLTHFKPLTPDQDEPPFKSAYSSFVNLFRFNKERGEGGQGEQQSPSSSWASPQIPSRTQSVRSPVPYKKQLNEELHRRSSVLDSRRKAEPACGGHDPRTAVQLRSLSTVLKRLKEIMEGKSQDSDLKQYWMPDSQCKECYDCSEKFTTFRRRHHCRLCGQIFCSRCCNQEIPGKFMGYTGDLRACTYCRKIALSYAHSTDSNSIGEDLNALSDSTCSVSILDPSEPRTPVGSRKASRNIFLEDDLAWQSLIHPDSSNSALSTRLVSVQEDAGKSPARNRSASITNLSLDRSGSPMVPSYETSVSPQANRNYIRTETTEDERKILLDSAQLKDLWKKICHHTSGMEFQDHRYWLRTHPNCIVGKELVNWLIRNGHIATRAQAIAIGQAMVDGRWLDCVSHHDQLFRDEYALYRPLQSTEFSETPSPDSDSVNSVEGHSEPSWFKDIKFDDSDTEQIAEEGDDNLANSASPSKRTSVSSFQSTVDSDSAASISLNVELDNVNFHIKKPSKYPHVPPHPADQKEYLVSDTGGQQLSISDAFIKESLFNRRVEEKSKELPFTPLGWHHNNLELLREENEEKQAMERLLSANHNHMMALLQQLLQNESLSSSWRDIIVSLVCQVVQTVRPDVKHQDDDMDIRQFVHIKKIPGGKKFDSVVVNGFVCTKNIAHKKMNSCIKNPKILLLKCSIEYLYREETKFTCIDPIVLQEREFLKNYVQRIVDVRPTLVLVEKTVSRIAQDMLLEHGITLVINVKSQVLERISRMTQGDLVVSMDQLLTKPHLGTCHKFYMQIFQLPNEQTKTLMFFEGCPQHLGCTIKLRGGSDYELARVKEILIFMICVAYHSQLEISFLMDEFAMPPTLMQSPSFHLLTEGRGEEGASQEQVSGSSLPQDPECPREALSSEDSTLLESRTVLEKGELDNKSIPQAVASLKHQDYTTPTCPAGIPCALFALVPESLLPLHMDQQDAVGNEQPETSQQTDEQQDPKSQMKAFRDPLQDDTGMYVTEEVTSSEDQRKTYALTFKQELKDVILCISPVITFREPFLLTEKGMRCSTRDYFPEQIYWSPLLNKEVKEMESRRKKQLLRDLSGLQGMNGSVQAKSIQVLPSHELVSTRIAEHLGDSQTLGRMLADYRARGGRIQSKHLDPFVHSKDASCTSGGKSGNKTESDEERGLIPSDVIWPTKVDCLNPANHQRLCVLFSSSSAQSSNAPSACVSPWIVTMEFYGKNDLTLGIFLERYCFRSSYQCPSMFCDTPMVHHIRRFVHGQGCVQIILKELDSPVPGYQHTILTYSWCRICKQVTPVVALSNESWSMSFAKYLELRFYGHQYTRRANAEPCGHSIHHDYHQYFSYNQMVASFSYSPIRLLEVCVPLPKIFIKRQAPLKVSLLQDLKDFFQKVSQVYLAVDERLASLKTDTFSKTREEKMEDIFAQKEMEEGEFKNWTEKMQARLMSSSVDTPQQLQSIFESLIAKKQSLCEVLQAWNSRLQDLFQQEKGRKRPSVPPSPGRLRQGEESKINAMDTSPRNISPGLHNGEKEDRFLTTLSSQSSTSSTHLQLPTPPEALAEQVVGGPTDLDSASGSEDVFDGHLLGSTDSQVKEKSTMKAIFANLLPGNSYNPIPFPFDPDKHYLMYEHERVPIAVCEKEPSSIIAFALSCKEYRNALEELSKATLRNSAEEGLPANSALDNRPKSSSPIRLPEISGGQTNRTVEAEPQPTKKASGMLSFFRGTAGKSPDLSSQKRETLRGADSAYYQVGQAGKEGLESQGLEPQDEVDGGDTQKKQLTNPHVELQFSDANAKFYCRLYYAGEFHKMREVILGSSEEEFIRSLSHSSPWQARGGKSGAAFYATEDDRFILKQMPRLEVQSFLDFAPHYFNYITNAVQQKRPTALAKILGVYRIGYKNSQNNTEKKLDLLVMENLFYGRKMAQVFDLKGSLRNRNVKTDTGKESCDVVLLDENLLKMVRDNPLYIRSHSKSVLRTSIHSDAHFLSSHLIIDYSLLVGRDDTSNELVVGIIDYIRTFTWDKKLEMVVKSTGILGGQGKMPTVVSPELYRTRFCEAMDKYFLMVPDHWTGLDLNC

Legend:
[1] = molecular target: OTX2 homeoprotein (mouse (endogenous in adult mouse brain tissue)) (UniProt P80206); assay: affinity purification with mass spectrometry; anti-OTX2 (ab21990) coupled to magnetic beads, lysates of SVZ, RMS and visual cortex pooled from ten 3-month-old wildtype mice; 20 mM Tris pH 8, 120 mM NaCl, 1% NP40, 1 mM MgCl2, 5% glycerol, benzonase; IgG co-IP as control; nano-LC-MS/MS; N = 1; hits common to the three structures
[2] = molecular target: OTX2 homeoprotein (mouse (endogenous in adult mouse brain tissue)) (UniProt P80206); assay: affinity purification with mass spectrometry; anti-OTX2 (ab21990) coupled to magnetic beads, lysate of pooled LV and 4V choroid plexus from four 3-month-old mice; 100 mM Tris pH 7.5, 1 mM EDTA, 100 mM NaCl, 1% NP40, 1 mM MgCl2, benzonase; 4 °C overnight; IgG co-IP as control; nano-LC-MS/MS; N = 3

Row | Molecule | binding [1] | binding [2]
1 | KCND3 (from UniProt Q9Z0V1 1-655) | binds | binds
2 | ACIN1 (protein, UniProt Q9JIX8 1-1338) MWGRKRPNSSGETRGILSGNRGVDYGSGRGQSGPFEGRWRKLPKMPEAVGTDPSTSRKMAELEEVTLDGKPLQALRVTDLKAALEQRGLAKSGQKSALVKRLKGALMLENLQKHSTPHAAFQPNSQIGEEMSQNSFIKQYLEKQQELLRQRLEREAREAAELEEASAESEDEMTHPEGVASLLPPDFQSSLNRPELELSTHSPRKSSSFSEEKGESDDEKPRKGERRSSRVRQAKSKLPEYSQTAEEEEDQETPSRNLRVRADRNLKIEEEEEEEEEEEDDDDEEEEEVDEAQKSREAEAPTLKQFEDEEGEERTRAKPEKVVDEKPLNIRSQEKGELEKGGRVTRSQEEARRSHLARQQQEKETQIVSLPQEENEVKSSQSLEEKSQSPSPPPLPEDLEKAPVVLQPEQIVSEEETPPPLLTKEASSPPTHIQLQEEMEPVEGPAPPVLIQLSPPNTDAGAREPLASPHPAQLLRSLSPLSGTTDTKAESPAGRVSDESVLPLAQKSSLPECSTQKGVESEREKSAPLPLTVEEFAPAKGITEEPMKKQSLEQKEGRRASHALFPEHSGKQSADSSSSRSSSPSSSSSPSRSPSPDSVASRPQSSPGSKQRDGAQARVHANPHERPKMGSRSTSESRSRSRSRSRSASSSSRKSLSPGVSRDSNTSYTETKDPSCGQEAAAPSGPQLQVLEPKEKAPTFSASVRGRHLSHPEPEQQHVIQRLQPEQGSPKKCEAEEAEPPAATQPQTSETQISHLLESERTHHTVEEKEEVTMDTSENRPENEVPEPPLPVADQVSNDERPEGGAEEEEKKESSMPKSFKRKISVVSATKGVQAGNSDTEGGQPGRKRRWGASTAATQKKPSISITTESLKSLIPDIKPLAGQEAVVDLHADDSRISEDETERNGDDGTHDKGLKICRTVTQVVPAEGQENGQREEEEEKEPEAELPAPPQVSVEVALPPPVEHEVKKVTLGDTLTRRSISQQKSGVSITIDDPVRTAQVPSPPRGKISNIVHISNLVRPFTLGQLKELLGRTGTLVEEAFWIDKIKSHCFVTYSTVEEAVATRTALHGVKWPQSNPKFLCADYAEQDELDYHRGLLVDRPSETKAEEQGAPRPLHPPPPPPVQPPPHPRAEQREQERAVREQWAEREREMERRERTRSEREWDRDKVREGPRSRSRSRDRRRKERAKSKEKKSEKKEKAQEEPPAKLLDDLFRKTKAAPCIYWLPLTESQIVQKEAEQAERAKEREKRRKEREEEEQKEREKEAERERNRQLEREKRREHSRERERDRERERDRGDRERERERDRDRGRERDRRDTKRHSRSRSRSTPVRDRGGRR | binds | –
3 | FIG4 (protein, UniProt Q91WF7 1-907) MPTAAAPIISSVQKLVLYETRARYFLVGSNHAETKYRVLKIDRTEPKDLVVIDDRHVYTQQEVRELLGRLDLGNRTKMSQKGSSGLFRAVSAFGVVGFVRFLEGYYIVLITKRRKMADIGGHAIYKIEDTSMIYIPNDSVRISHPDEARYLRIFQNVDLSSNFYFSYSYDLSHSLQYNLTVLRMPLEMLKSETSKACQESFDIFEDEGLITQGGSGVFGISSEPYMKYVWNGELLDIIKNTVHRDWLLYIIHGFCGQSKLLIYGRPVYVTLIARRSSRFAGTRFLKRGANCEGDVANEVETEQILCDASVMSFTAGSYSSYVQVRGSVPLFWSQDISTMMPKPPITLDQADPFAHVAALHFDQMLQRFGSPIIILNLVKEREKRKHERILSEELVAAVTYLNQFLPPEHTIVYIPWDMAKYTKSKLCNVLDRLNVIAESVVKKTGFFVNRPDSYCSILRPDEKWNELGGHVIPTGRLQTGILRTNCVDCLDRTNTAQFMVGKCALAYQLYSLGLIDKPNLQFDTDAVRLFEELYEDHGDTLSLQYGGSQLVHRVKTYRKIAPWTQHSKDIMQTLSRYYSNAFSDADRQDSINLFLGVFHPTEGKPHLWELPTDFYLHHKNTMSLLPPRRSYTYWWTPEVVKHLPLPYDEVICAANLKKLMVKKFHRWEEEIDIHNEFFRPYELSSFDDTFCLAMTSSARDFMPKTVGIDPSPFTVRKPDETGKSVLGNKNTREEAVLQRKTAASAPPPPSEEAVSSSSEDDSGTDREDEGSISQRSTPVKMTDTGDSAKATENVVQPMKEVYGVSLSSSLSEEDHSIYARFVQLGQSQHKQDRGNQQLCSRCSDGVIKLTPISAFSQDNIYEVQPPRVDRKSTEIFQAHIQASQGIMQPLGKEDTAMYREYIRNRYL | binds | binds
4 | DDX46 (protein, UniProt Q569Z5 1-1032) MGRESRHYRKRSASRGRSGSRSRSRSPSDKRSKRGDDRRSRSRDRDRRRERSRSRDKRRSRSRDRKRLRRSRSRERDRSRERRRSRSRDRRRSRSRSRGRRSRSSSPGSKTKKTENRSRSKEKAEGGDSSKEKKKDKDDKEDEKEKDAGNFDQNKLEEEMRKRKERVEKWREEQRKKAMENIGELKKEIEEMKQGKKWSLEDDDDDEDDPAEAEKEGTEMEDEELDPLDAYMEEVKEEVKKFNMRSVKGGAGNEKKSGPTVTKVVTVVTTKKAVVDADKKKGELMENDQDAMEYSSEEEEVDLQTALTGYQTKQRKLLEPVDHGKIEYEPFRKNFYVEVPELAKMSQEEVNVFRLEMEGITVKGKGCPKPIKSWVQCGISMKILNSLKKHGYEKPTPIQTQAIPAIMSGRDLIGIAKTGSGKTIAFLLPMFRHIMDQRSLEEGEGPIAVIMTPTRELALQITKECKKFSKTLGLRVVCVYGGTGISEQIAELKRGAEIIVCTPGRMIDMLAANSGRVTNLRRVTYVVLDEADRMFDMGFEPQVMRIVDNVRPDRQTVMFSATFPRAMEALARRILSKPIEVQVGGRSVVCSDVEQQVIVIEEEKKFLKLLELLGHYQESGSVIIFVDKQEHADGLLKDLMRASYPCMSLHGGIDQYDRDSIINDFKNGTCKLLVATSVAARGLDVKHLILVVNYSCPNHYEDYVHRAGRTGRAGNKGYAYTFITEDQARYAGDIIKALELSGTAVPPDLEKLWSDFKDQQKAEGKIIKKSSGFSGKGFKFDETEQALANERKKLQKAALGLQDSDDEDAAVDIDEQIESMFNSKKRVKDMAAPGTSSVPAPTAGNAEKLEIAKRLALRINAQKNLGIESQVDVMQQATNAILRGGTILAPTVSAKTIAEQLAEKINAKLNYVPLEKQEEERQEGGQSESFKRYEEELEINDFPQTARWKVTSKEALQRISEYSEAAITIRGTYFPPGKEPKEGERKIYLAIESANELAVQKAKAEITRLIKEELIRLQNSYQPTNKGRYKVL | binds | –

More lines, now with the values ahead:

Row | binding [1] | binding [2] | Molecule
5 | binds | binds | PIKFYVE (from UniProt Q9Z1T6 1-2097)
6 | binds | – | SF3A1 (protein, UniProt Q8K4Z5 1-791) MQAGPVQAVPPPPPVATESKQPIEEEASSKEDPTPSKPVVGIIYPPPEVRNIVDKTASFVARNGPEFEARIRQNEINNPKFNFLNPNDPYHAYYRHKVSEFKEGKAQEPSAAIPKVMQQQQQATQQQLPQKVQAQVIQETIVPKEPPPEFEFIADPPSISAFDLDVVKLTAQFVARNGRQFLTQLMQKEQRNYQFDFLRPQHSLFNYFTKLVEQYTKILIPPKGLFSKLKKEAENPREVLDQVCYRVEWAKFQERERKKEEEEKEKERVAYAQIDWHDFVVVETVDFQPNEQGNFPPPTTPEELGARILIQERYEKFGESEEVEMEVESDEEDQEKAEETPSQLDQDTQVQDMDEGSDDEEEGQKVPPPPETPMPPPLPPTPDQVIVRKDYDPKASKPLPPAPAPDEYLVSPITGEKIPASKMQEHMRIGLLDPRWLEQRDRSIREKQSDDEVYAPGLDIESSLKQLAERRTDIFGVEETAIGKKIGEEEIQKPEEKVTWDGHSGSMARTQQAAQANITLQEQIEAIHKAKGLVPEDDTKEKIGPSKPNEIPQQPPPPSSATNIPSSAPPITSVPRPPAMPPPVRTTVVSAVPVMPRPPMASVVRLPPGSVIAPMPPIIHAPRINVVPMPPAAPPIMAPRPPPMIVPTAFVPAPPVAPVPAPAPMPPVHPPPPMEDEPPSKKLKTEDSLMPEEEFLRRNKGPVSIKVQVPNMQDKTEWKLNGQGLVFTLPLTDQVSVIKVKIHEATGMPAGKQKLQYEGIFIKDSNSLAYYNMASGAVIHLALKERGGRKK
7 | binds | – | SF3B1 (protein, UniProt Q99NB9 1-1304) MAKIAKTHEDIEAQIREIQGKKAALDEAQGVGLDSTGYYDQEIYGGSDSRFAGYVTSIAATELEDDDDDYSSSTSLLGQKKPGYHAPVALLNDIPQSTEQYDPFAEHRPPKIADREDEYKKHRRTMIISPERLDPFADGGKTPDPKMNARTYMDVMREQHLTKEEREIRQQLAEKAKAGELKVVNGAAASQPPSKRKRRWDQTADQTPGATPKKLSSWDQAETPGHTPSLRWDETPGRAKGSETPGATPGSKIWDPTPSHTPAGAATPGRGDTPGHATPGHGGATSSARKNRWDETPKTERDTPGHGSGWAETPRTDRGGDSIGETPTPGASKRKSRWDETPASQMGGSTPVLTPGKTPIGTPAMNMATPTPGHIMSMTPEQLQAWRWEREIDERNRPLSDEELDAMFPEGYKVLPPPAGYVPIRTPARKLTATPTPLGGMTGFHMQTEDRTMKSVNDQPSGNLPFLKPDDIQYFDKLLVDVDESTLSPEEQKERKIMKLLLKIKNGTPPMRKAALRQITDKAREFGAGPLFNQILPLLMSPTLEDQERHLLVKVIDRILYKLDDLVRPYVHKILVVIEPLLIDEDYYARVEGREIISNLAKAAGLATMISTMRPDIDNMDEYVRNTTARAFAVVASALGIPSLLPFLKAVCKSKKSWQARHTGIKIVQQIAILMGCAILPHLRSLVEIIEHGLVDEQQKVRTISALAIAALAEAATPYGIESFDSVLKPLWKGIRQHRGKGLAAFLKAIGYLIPLMDAEYANYYTREVMLILIREFQSPDEEMKKIVLKVVKQCCGTDGVEANYIKTEILPPFFKHFWQHRMALDRRNYRQLVDTTVELANKVGAAEIISRIVDDLKDEAEQYRKMVMETIEKIMGNLGAADIDHKLEEQLIDGILYAFQEQTTEDSVMLNGFGTVVNALGKRVKPYLPQICGTVLWRLNNKSAKVRQQAADLISRTAVVMKTCQEEKLMGHLGVVLYEYLGEEYPEVLGSILGALKAIVNVIGMHKMTPPIKDLLPRLTPILKNRHEKVQENCIDLVGRIADRGAEYVSAREWMRICFELLELLKAHKKAIRRATVNTFGYIAKAIGPHDVLATLLNNLKVQERQNRVCTTVAIAIVAETCSPFTVLPALMNEYRVPELNVQNGVLKSLSFLFEYIGEMGKDYIYAVTPLLEDALMDRDLVHRQTASAVVQHMSLGVYGFGCEDSLNHLLNYVWPNVFETSPHVIQAVMGALEGLRVAIGPCRMLQYCLQGLFHPARKVRDVYWKIYNSIYIGSQDALIAHYPRIYNDDKNTYIRYDLDYIL
